Measured values reported in doi:10.1101/2022.02.05.479252.
No constants are given. Whether binding was seen depends on the method and setting. Some entries that bind do so weakly or less than the wild type.

The chains behind the UniProt entries cited, without tags or fusion partners. Residues count along the entry.
UniProt P22290, residues 211-525: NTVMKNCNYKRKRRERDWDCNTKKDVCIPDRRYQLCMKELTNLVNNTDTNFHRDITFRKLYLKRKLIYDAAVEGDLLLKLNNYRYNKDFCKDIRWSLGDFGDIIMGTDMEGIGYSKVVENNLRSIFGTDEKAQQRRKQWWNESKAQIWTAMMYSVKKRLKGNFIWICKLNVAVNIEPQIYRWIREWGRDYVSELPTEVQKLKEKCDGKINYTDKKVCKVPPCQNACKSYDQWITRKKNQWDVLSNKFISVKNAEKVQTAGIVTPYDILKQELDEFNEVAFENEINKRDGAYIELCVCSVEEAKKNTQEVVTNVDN

Target: T1, Duffy antigen/Receptor for chemokines (DARC) (UniProt Q16570)
T1 sequence: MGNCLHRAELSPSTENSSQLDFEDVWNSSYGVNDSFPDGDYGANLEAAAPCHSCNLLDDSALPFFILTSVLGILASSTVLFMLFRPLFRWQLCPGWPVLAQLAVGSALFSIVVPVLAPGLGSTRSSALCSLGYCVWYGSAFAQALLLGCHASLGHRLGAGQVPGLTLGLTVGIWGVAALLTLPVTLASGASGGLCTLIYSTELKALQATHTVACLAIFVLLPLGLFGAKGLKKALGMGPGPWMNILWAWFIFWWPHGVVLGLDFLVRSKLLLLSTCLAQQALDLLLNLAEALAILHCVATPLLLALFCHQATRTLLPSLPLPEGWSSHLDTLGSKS
Test: flow cytometry on cells

In the case of “biotinylated BirA-tagged Sal-1 Duffy binding protein region II (DBP-II) (from UniProt P22290 211-525) (domain or fragment)”, the binding is reported as “binds”.
